Source: US20050250143A1
No constants are given. Whether binding was seen depends on the method and setting. In cells and extracts the contact can be indirect. Some binding calls cover weakened binding; strength is not graded here. Tags and fused reporters may be left off the sequences shown.

Protein sequences, listed by entry. Tags and fused reporters are not part of them. Lines headed by an entry give the natural chain unless they say otherwise; changes in a name come on top.
UniProt Q96EZ8: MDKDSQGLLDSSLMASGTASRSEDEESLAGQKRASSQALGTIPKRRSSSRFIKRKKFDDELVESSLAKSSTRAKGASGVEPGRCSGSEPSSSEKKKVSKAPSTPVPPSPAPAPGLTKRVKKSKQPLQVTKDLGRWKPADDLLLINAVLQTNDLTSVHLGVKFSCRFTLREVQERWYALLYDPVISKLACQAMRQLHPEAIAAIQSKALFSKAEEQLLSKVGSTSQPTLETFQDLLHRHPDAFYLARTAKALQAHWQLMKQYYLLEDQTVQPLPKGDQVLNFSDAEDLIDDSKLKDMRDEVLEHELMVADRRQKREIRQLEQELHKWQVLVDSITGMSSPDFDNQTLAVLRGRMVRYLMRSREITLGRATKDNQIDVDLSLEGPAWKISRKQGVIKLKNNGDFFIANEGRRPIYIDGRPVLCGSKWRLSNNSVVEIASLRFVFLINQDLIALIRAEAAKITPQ

What was measured:
[1] = target: T1, GST-MEKK1 protein (plasmid pBCGST-MEKK1) (UniProt P53349); experiment: GST pull-down on GSH-sepharose from CHOMIF1/MSP58#34 cells, Western blot with anti-myc antibody
T1 sequence (looked up): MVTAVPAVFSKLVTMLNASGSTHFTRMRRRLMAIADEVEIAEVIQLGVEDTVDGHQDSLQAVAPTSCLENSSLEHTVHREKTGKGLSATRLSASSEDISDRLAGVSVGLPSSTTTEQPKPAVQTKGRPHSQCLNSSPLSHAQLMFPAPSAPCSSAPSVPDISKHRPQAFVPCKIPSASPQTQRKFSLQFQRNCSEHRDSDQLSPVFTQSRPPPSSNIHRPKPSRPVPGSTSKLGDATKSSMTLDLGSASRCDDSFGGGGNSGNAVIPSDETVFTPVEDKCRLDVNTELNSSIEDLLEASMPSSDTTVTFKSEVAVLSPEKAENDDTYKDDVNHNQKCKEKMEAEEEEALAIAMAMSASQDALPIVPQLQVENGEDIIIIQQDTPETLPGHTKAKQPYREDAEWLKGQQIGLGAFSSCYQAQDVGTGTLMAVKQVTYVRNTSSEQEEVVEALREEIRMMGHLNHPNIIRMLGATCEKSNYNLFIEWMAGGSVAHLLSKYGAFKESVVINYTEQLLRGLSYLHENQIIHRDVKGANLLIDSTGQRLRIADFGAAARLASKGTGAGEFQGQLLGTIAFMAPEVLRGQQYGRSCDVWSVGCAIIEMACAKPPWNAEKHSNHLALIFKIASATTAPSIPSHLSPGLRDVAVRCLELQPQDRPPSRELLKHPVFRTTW

[2] = target: T1, GST-MEKK1 protein (plasmid pBCGST-MEKK1); experiment: GST pull-down on GSH-sepharose from CHOMIF1 #34 cells with or without 200 mM sorbitol, Western blot with anti-myc antibody

binding [1]: binds | binding [2]: binds
Substance: Myc-tagged MIF1/MSP58 protein (plasmid pCM562), expressed in CHO stable clone #34 (from UniProt Q96EZ8 1-462)
